# Laboratory results: patent US20030068386A1, “Method of treating cancerous disease” (priority 2001, published 2003)
# Legend:
# [1] = Hydrolysis to HO., HPLC-UV analysis of POBN/CH3 hydroxylamine in solutions with DMSO and POBN
# [2] = ESR spin trapping of HO. with DMPO in solution of AS; conditions: 0.5 mM AS, phosphate buffer pH 7.4, 20° C.
compound,measurement,setting,value
"[Na+].[Na+].[O-][N+]([O-])=NO [AS, sodium trioxodinitrate]","yield of POBN/CH3 hydroxylamine (Scheme III, 9) from the initial AS concentration","[1]; 0.1 phosphate buffer pH 5, DMSO, POBN",approximately 10%
same,share of AS that hydrolyzes to hydroxyl radical,[1]; from the data in FIG. 4,at least 10%
same,AS-dependent production of HO. relative to that at pH 7.4,"[1]; pH 5.5 versus pH 7.4, AS 15 mM, 30 minutes at 37° C.",43 times
same,AS-dependent production of HO. relative to that at pH 7.4,[1]; pH interval of about 4-6.5 versus pH 7.4,50 times
same,maximal steady state spin concentration as share of the initial concentration of AS,[2],1%
same,"maximal steady state spin concentration of DMPO/.OH (Scheme III, 5)",[2],5.4 µM
